According to article PMC12154468:
These are yes or no findings as the source states them, for the method shown. Binding can be weak; no strength is given.

Target: Large yellow croaker dimerization partner DP1 (PcDP1), GAL4 BD fusion (large yellow croaker (Pseudosciaena crocea)) (UniProt D2CFQ6)
Assay: two-hybrid; Matchmaker Two-Hybrid System; GAL4 BD-DP1 (pGBKT7) as bait, GAL4 AD-E2F1-6 (pGADT7) as preys; S. cerevisiae AH109, mating at 30 °C for 24 h; growth on SD/–Ade/–His/–Leu/–Trp plates without or with X-gal

## Large yellow croaker E2F4 (PcE2F4), GAL4 AD fusion (from UniProt A0A5Q0MTN8)
  binding: binds
